The source of these data is article PMC9646525, “Cryo-EM structure of the SEA complex” (Nature, 2022).

What all share (assay): cryo-EM structure; endogenous SEAC purified from yeast via Sea4-TAP (IgG Dynabeads, TEV elution in 20 mM HEPES-NaOH pH 7.4, 300 mM NaCl, 2 mM DTT), on graphene-oxide-coated grids; both purified
Experiment [1] has as its target T1, Sea3 (S. cerevisiae (endogenous in yeast cells)) (UniProt Q03897).
T1 sequence: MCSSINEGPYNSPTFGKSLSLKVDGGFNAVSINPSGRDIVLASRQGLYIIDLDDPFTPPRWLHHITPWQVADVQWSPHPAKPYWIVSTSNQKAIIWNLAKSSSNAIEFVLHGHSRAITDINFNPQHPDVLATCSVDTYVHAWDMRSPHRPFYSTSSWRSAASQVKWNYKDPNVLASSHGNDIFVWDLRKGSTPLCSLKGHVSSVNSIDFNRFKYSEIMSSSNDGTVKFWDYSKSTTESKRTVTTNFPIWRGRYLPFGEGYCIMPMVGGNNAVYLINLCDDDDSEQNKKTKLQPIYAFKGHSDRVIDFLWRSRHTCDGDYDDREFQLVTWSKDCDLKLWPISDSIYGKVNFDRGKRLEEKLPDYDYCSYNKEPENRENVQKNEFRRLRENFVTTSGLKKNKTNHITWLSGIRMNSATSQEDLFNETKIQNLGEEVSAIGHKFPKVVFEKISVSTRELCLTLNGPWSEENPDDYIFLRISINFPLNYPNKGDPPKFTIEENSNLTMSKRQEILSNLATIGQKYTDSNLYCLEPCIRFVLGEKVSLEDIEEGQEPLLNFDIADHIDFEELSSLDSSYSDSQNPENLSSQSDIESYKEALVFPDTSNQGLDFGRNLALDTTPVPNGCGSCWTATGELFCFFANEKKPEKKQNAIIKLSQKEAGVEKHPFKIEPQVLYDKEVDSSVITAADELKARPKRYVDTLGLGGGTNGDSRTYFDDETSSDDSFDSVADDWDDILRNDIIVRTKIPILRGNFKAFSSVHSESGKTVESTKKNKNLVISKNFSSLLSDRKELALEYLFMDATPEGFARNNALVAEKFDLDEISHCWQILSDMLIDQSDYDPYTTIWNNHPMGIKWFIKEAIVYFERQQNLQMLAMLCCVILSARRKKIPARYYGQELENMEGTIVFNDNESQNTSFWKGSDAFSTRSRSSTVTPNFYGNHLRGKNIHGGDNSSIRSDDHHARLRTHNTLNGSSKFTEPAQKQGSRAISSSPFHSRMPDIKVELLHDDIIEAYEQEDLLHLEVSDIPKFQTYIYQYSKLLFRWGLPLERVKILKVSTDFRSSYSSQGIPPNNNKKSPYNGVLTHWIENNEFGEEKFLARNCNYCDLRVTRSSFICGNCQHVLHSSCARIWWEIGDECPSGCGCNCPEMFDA

For experiment [2], the target named is T2, Sea4-TAP (S. cerevisiae (endogenous in yeast cells)) (UniProt P38164).
T2 sequence: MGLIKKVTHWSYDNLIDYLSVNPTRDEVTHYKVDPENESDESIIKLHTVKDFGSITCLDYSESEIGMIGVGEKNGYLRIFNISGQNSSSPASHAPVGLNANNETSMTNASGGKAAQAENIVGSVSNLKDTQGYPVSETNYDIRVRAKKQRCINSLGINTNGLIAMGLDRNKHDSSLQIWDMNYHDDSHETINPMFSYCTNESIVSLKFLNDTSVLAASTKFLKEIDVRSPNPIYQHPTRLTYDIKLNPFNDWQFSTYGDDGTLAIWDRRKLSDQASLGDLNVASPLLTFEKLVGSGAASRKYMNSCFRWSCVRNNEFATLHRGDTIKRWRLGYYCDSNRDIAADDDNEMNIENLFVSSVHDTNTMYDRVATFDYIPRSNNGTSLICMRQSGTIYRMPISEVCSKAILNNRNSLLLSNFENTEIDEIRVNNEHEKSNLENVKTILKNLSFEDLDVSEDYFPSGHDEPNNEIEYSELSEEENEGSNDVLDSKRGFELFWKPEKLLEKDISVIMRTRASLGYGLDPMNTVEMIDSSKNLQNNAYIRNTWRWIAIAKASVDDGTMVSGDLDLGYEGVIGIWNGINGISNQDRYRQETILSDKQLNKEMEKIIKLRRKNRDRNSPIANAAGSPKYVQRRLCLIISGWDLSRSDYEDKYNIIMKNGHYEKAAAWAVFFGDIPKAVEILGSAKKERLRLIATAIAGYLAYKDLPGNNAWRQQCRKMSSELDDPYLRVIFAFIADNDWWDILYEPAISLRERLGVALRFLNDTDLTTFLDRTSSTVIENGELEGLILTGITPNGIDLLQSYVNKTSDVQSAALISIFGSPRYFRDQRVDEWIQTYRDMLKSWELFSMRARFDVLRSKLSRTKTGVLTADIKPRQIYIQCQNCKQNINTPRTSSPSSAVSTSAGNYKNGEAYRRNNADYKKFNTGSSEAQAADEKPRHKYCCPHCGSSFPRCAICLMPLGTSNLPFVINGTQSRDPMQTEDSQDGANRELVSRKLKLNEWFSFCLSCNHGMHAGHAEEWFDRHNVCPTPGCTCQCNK

In experiment [3] the target is Npr3 (S. cerevisiae (endogenous in yeast cells)).

These are yes or no findings as the source states them, for the method shown. A result given as binding can be weak or reduced; the word gives no strength.

On to Npr3, for which the binding result in experiment [1] and in experiment [2] was “binds” in each case.

B1: Npr2 (natural protein, UniProt P39923 1-615, looked up)
chain: MLSYFQGFVPIHTIFYSVFHPTEGSKIKYEFPPNNLKNHGINFNTFKNYIIPKPILCHKLITFKYGTYRIVCYPVTINSPIYARNFFSFNFVFVFPYDCETSPYEPAITRLGKMFKVLEEQNQLLSKSERDPVFFDLKVLENSTTTPSTAGPSSTPNPSSNTTPTHPTSEKDTKDMRSSRYSDLIKDLGLPQSAFSIQDLLMRIFQDLNNYSECLIPIDEGNAVDIKIFPLLRPPTTCVSLEDVPLSSVNLKKIIDVNWDPTMMSIVPYIDGLNSIAKISKLSNSDPGLVIECIRHLIYYKCVTLSDIFQFSNIYAPSSLIRNFLTDPLMASDCQSYVTFPEVSKISNLPLNKSLGSGDQDSPSFSVRRKSKSSSIPSNPDSRTTSFSSTSRVSQNSSLNSSFSSIYKDWRQSQTSCSSSNIHVINNRNRFLPTRSCLFDLYRSLSQGQTLKTWYESKYMILKENNIDIRRFITFGLEKRIIYRCYSFPVMINAGSREPKEMTPIITKDLVNNDKLLEKRNHNHLLSATGSRNTAQSGNLKPERPSKVSFEMQRVSSLATGKSTMPKLSDEEEGILEESIRNAETFDKICVLLSKPKLEVESYLNELGEFKVINS
notes: Npr2, S. cerevisiae, endogenous subunit of the SEAC (SEACIT, wing); Native protein of the purified complex; two copies in the SEAC; source: endogenous, yeast cells expressing Sea4-TAP or Sea1-TAP; in lysate and co-purified with the tagged subunit (IgG Dynabeads, TEV elution)
Turning to B1, the binding entry in experiment [3] is recorded as “binds”.
